Experimental data as given in publication PMC10421740.

Legend:
[1] = target: T1, KLF6 reprogrammed with array CDKN1C_125 F3-8 (synthetic construct) (UniProt Q99612); assay: binding assay; conditions: Zn; HEK293T, RT-qPCR 3 days after transfection; residues 1-199; scale: relative expression
T1 sequence: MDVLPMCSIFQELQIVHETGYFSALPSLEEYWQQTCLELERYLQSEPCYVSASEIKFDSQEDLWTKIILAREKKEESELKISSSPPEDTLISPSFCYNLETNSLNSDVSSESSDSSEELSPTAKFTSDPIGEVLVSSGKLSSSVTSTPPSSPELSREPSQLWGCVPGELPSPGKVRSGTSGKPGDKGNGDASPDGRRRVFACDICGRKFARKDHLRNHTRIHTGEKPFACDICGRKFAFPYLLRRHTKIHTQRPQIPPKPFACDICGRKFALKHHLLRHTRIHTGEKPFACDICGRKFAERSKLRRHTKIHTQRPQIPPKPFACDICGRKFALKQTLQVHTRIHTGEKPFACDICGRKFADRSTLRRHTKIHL

[2] = target: T2, KLF6 reprogrammed with array CDKN1C_200 F1-6 (synthetic construct) (UniProt Q99612); assay: binding assay; conditions: Zn; HEK293T, RT-qPCR 3 days after transfection; residues 1-199; scale: relative expression
T2 sequence: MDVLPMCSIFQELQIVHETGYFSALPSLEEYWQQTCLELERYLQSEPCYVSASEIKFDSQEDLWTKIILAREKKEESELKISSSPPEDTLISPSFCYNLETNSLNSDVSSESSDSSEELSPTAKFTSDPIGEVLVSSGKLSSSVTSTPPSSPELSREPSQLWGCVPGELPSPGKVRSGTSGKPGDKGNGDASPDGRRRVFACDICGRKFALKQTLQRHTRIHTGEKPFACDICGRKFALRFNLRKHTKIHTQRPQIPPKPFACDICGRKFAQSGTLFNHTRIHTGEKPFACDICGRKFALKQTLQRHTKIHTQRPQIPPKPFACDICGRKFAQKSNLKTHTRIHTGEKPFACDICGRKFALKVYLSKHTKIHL

Row | Sequence | binding signal [1] | binding signal [2]
1 | GCCAATGGGCGGTGCGCGGGGGCCGGGC (double strand) [CDKN1C_125] | 0.4 | 
2 | TTGAAACTGAAAATACTACATTATGCTA (double strand) [CDKN1C_200] |  | 1.3

The direction of at least one scale is not stated here. Tags and fusion partners may be left off the protein sequences shown.
